Laboratory results from ChEMBL document CHEMBL3351846, “Synthesis and SAR studies of bis-chromenone derivatives for anti-proliferative activity against human cancer cells” (Bioorg Med Chem Lett, 2014).
Structures can show the parent of a compound that is named as a salt.

How the values were obtained:
ACHN = assay: Anti-proliferative activity against human ACHN cells by XTT assay; assay type: functional, cell-based
[1] = Anti-proliferative activity against human PC3 cells by XTT assay; assay type: functional, cell-based; conditions: PC-3

COc1cccc2c1C(=O)c1c(O)c3c(c(O)c1C2=O)C[C@@](O)(C(=O)CO)C[C@@H]3O[C@H]1C[C@H](N)[C@H](O)[C@H](C)O1 [DOXORUBICIN HYDROCHLORIDE]
IC50 (ACHN): 260 nM | IC50 [1]: 500 nM
